In PMC3639248:
Results are given in words; binding and its absence hold for the method and conditions named. For part of these data: Binding seen in cells or lysates may run through a third protein. Some results given as binding are weak or reduced against the parent protein; the word gives no strength.

The chains behind the UniProt entries cited, without tags or fusion partners. Residues count along the entry.
UniProt O75581, residues 20-1613: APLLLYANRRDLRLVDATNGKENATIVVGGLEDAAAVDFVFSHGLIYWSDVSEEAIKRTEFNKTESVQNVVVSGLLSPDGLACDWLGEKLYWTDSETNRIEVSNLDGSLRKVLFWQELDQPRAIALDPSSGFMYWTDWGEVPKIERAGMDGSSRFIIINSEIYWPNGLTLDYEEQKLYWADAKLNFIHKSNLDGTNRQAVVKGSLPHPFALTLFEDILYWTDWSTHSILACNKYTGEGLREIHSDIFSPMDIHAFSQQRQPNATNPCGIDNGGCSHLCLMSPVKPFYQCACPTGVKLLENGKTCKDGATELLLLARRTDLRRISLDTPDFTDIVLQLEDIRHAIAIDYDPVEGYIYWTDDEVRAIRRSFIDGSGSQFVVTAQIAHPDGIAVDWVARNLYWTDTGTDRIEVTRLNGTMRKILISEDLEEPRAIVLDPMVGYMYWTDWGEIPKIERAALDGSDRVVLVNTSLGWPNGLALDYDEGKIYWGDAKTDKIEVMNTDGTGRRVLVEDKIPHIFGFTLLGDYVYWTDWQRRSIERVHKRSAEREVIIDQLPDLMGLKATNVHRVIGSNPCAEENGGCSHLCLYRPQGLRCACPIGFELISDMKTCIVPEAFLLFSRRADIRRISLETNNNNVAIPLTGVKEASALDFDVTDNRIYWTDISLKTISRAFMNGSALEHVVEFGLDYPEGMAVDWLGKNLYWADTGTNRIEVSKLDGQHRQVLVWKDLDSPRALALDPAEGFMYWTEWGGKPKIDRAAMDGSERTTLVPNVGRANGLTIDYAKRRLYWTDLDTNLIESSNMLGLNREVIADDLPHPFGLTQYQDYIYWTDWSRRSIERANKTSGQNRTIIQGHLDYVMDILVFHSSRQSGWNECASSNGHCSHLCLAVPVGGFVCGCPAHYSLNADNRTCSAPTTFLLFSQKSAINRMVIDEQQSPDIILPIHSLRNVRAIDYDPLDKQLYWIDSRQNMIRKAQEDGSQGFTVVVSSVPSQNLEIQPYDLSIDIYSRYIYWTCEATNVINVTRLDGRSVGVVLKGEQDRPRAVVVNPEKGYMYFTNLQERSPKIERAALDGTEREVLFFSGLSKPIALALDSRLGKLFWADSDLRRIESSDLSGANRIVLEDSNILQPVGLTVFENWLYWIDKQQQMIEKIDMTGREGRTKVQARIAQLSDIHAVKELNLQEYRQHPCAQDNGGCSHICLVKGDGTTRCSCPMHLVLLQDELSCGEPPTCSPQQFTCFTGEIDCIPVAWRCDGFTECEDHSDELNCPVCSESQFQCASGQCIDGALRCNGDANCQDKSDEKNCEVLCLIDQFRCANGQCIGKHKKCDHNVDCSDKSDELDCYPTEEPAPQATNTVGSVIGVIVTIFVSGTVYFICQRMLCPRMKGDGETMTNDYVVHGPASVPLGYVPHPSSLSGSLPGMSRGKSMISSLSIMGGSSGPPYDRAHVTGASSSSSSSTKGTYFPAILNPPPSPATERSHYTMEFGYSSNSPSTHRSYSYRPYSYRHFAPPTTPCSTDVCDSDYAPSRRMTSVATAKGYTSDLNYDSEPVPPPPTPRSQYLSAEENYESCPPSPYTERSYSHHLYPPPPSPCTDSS
UniProt Q91VN0, residues 31-1614: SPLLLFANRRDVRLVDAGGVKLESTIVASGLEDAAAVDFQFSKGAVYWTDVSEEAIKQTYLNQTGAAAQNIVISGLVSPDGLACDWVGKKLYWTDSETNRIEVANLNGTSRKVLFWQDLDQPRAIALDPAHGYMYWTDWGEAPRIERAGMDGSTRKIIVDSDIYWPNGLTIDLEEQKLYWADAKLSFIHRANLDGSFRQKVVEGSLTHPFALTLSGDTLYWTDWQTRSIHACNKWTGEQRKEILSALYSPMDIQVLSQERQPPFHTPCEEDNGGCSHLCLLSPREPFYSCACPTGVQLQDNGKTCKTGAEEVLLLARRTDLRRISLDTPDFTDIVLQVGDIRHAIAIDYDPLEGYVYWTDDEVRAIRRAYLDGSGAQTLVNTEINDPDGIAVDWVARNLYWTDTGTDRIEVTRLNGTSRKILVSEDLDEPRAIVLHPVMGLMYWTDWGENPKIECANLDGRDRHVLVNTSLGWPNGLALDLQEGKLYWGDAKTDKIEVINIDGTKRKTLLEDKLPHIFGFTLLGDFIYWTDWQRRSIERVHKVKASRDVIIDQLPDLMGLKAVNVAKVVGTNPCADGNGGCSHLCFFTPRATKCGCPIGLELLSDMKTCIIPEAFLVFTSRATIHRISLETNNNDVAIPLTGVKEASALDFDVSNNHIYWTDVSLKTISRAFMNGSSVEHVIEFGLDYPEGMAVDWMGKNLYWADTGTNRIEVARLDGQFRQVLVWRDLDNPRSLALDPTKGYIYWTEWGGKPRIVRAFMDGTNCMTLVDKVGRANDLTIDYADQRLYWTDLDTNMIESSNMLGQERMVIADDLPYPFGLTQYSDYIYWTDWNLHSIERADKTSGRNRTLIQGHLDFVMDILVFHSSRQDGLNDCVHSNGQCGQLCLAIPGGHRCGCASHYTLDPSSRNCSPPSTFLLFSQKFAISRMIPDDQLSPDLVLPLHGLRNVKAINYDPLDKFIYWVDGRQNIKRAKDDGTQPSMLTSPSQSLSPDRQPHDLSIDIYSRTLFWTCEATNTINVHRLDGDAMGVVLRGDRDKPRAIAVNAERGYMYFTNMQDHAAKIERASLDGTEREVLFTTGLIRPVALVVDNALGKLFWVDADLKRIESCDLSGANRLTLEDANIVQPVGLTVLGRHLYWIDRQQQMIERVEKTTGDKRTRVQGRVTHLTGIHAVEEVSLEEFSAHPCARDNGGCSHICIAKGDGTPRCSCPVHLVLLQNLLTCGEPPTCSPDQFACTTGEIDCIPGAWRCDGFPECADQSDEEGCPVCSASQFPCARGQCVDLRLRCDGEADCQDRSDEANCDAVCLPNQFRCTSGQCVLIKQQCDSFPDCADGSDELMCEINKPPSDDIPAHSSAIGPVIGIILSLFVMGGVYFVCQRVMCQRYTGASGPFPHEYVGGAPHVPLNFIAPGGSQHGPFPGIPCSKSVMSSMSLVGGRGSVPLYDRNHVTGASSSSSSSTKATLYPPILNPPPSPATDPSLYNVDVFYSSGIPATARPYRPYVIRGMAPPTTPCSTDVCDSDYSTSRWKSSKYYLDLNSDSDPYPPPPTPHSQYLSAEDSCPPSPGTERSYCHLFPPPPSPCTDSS
UniProt Q99P68, residues 24-211: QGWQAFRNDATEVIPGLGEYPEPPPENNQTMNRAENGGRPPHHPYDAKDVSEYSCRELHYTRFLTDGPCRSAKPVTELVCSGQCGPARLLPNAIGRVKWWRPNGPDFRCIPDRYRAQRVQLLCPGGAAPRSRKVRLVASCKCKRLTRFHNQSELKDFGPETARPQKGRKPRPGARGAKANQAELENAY

Columns and labels:
[1] = biological target: LRP6-V5 stably over-expressed on 293 cells (UniProt O75581); experiment: confocal microscopy of GFP-fused ligand on cells; competition: 293-LRP6 cells incubated with Sclerostin-GFP and different amounts of non-tagged Sclerostin for 1.5 h at 4°C, then 30 min at 37°C, fixed; only the binder purified
[2] = biological target: LRP6-V5 stably over-expressed on 293 cells (UniProt O75581); experiment: confocal microscopy of GFP-fused ligand on cells; Sclerostin-GFP pre-incubated with Fc or Fabs raised against Sclerostin for 30 min at room temperature, added to 293-LRP6 cells for 1.5 h at 4°C, then 30 min at 37°C, fixed; only the binder purified
[3] = biological target: LRP6-V5 stably over-expressed on 293 cells (UniProt O75581); experiment: confocal microscopy of GFP-fused ligand on cells; 293 cells stably over-expressing LRP6 or with empty pcDNA3 vector, 500 ng/ml Sclerostin-GFP, 1.5 h at 4°C (methods: 2.5 h on ice), then 30 min at 37°C, fixed; also after Monodansylcadaverine (200 µM) or Nystatin (25 µg/ml); only the binder purified
[4] = biological target: low density lipoprotein receptor-related protein 5 (LRP5), endogenous on mouse mesenchymal cell lines (mouse (endogenous in C2C12, C3H10T1/2, ATDC5, KS483)) (UniProt Q91VN0); experiment: cross-linking; KS483 cells affinity-labelled with [125I]Sclerostin pre-incubated for 30 min at room temperature with Fc, aGFP-IgG, AbD09097 or aSCL-IgG; chemical cross-linking, lysate on SDS-PAGE, phosphorimager; only the binder purified
[5] = biological target: low density lipoprotein receptor-related protein 5 (LRP5), endogenous on mouse mesenchymal cell lines (mouse (endogenous in C2C12, C3H10T1/2, ATDC5, KS483)) (UniProt Q91VN0); experiment: cross-linking; cells affinity-labelled on ice for 3 h with [125I]Sclerostin, cross-linked with 0.27 mM DSS and 0.09 mM BS3 for 15 min, lysed, immunoprecipitated with anti-LRP5 or anti-LRP6, SDS-PAGE, phosphorimager; C2C12, C3H10T1/2, ATDC5 and KS483 cells; also KS483 cells with shRNA knock-down of LRP5 or LRP6; only the binder purified

“Sclerostin-GFP fusion protein (recombinant murine Sclerostin with C-terminal eGFP) (from UniProt Q99P68 24-211)” was tested, and the binding [1] was “binds”, the binding [2] was “binds” and the binding [3] was “binds”.
For “[125I]Sclerostin (recombinant murine full-length Sclerostin, iodinated) (from UniProt Q99P68 24-211)”, the binding [4] was “binds” and the binding [5] was “binds weakly”.
For “non-tagged recombinant murine Sclerostin (from UniProt Q99P68 24-211)”, the binding [1] was “binds”.
